{"source": "patent US11591330B2", "about": "“HIF-2a small-molecule inhibitor and use thereof” (China Medical University, priority 2018, dated 2023)", "key": {"[1]": {"system": "human ovarian cancer stem cell-like OVCAR-3 MS cells", "test": "MTT/CCK8 cell proliferation analysis", "format": "cell-based", "conditions": "as the dose of ComA increases, FIG. 7", "procedure": "(§1) When MCF-7 or OVCAR-3 cells grew to 70%-80%, the medium was discarded, PBS was added for washing 3 times, and trypsin was added for digestion for 1 min; the DMEM medium containing 10% fetal calf serum was added to stop the digestion, centrifuged at 1000 rpm for 5 min, the supernatant was discarded, PBS was added to resuspend cells, centrifuged at 1000 rpm for 5 min, the supernatant was discarded, 2 ml DMEM-F12 conditioned medium was added to resuspend cells, and the cells were cultured in suspension at 37° C., 5% CO2 in a constant-humidity environment. […]"}, "[2]": {"system": "human breast cancer stem cell-like MCF-7 MS cells", "test": "MTT/CCK8 cell proliferation analysis", "format": "cell-based", "conditions": "as the dose of ComA increases, FIG. 6", "procedure": "as §1"}}, "note": "The name of at least one read-out is uncertain."}
{"smiles": "Cc1ccn2c(=O)cc(CN(Cc3ccccc3)Cc3ccco3)nc2c1", "note": "[ComA]", "values": [{"measurement": "effect on the IC50 value of DDP", "setting": "[1]", "result": "reduces the IC50 value of DDP"}, {"measurement": "effect on the IC50 value of PTX", "setting": "[2]", "result": "reduces the IC50 value of PTX"}]}
